# Library screen at single concentrations

By UniProt entry, the sequences of proteins in these tests, tags left out. Residues count along the entry.
UniProt Q8IDJ8, 1-583: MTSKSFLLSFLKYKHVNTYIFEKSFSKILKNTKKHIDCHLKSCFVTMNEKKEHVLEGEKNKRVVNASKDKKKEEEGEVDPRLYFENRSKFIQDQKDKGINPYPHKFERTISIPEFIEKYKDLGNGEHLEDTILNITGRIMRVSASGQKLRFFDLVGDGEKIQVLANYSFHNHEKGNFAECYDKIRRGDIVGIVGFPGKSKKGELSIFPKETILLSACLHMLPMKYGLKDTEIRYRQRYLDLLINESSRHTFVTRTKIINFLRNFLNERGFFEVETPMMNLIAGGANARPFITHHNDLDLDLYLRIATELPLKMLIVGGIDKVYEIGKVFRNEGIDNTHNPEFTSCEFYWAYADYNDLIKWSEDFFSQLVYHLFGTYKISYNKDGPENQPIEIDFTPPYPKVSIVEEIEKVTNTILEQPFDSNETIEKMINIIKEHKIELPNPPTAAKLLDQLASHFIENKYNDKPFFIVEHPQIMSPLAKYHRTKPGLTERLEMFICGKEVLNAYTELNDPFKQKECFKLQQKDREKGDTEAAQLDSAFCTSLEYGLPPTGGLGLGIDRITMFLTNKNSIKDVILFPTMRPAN
UniProt P9WFT3, whole entry: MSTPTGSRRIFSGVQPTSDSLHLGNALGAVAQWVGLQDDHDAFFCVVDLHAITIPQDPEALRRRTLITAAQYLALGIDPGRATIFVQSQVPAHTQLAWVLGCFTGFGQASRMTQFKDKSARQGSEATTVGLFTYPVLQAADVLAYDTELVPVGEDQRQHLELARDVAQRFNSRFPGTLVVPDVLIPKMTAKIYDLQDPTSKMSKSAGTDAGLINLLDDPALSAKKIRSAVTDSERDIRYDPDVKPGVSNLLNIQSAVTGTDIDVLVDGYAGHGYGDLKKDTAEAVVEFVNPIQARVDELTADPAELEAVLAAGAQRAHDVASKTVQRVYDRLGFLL

Values are the deposited “Percent Effect”, in %. The controls that fix the scale are not given in the record; negative values are as filed. This is an unselected part of the compounds tested.

A: 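Lysine-tRNA ligase, Plasmodium falciparum 3D7 (UniProt Q8IDJ8). Enzyme assay of the cytosolic lysyl-tRNA synthetase in 384-well plates, read by luminescence. Tested at 30 µM. Higher reads as stronger inhibition, judged from the few compounds that gave an IC50. Of about 69,000 compounds tested this way, about 49 (0.071%) reached 50% or more in at least one test.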
B: 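Tryptophan-tRNA ligase, Mycobacterium tuberculosis (UniProt P9WFT3). Enzyme assay of tryptophanyl-tRNA synthetase; the read-out is not stated. Concentration: 10 µM. Direction is not recorded; retested compounds ran higher, which suggests that high means inhibition. About 65,000 compounds were tested under these conditions; 0.098% (about 64) showed 50% or more at least once.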

{"compound": "O=C(O)c1ccc(S(=O)(=O)Nc2cnn(CC(F)(F)F)c2)cc1", "A": 3.465, "B": 3.479}
{"compound": "CC(C)OCc1ncn2c1CN(CCO)CCC2", "A": -2.137, "B": -4.392}
{"compound": "COCCN1CCC2(COCc3cnc(N4CCOCC4)nc32)C1", "stereo": "stereo not drawn", "A": -6.876, "B": -5.11}
{"compound": "CN(C)C(=O)N1CCCC2(CCN(Cc3ccncc3)C2)C1", "stereo": "stereo not drawn", "A": 1.846, "B": -0.3526}
{"compound": "CCS(=O)(=O)N1CCC2(CN(C(=O)c3cscn3)C2)C1", "A": 3.577, "B": -5.307}
{"compound": "Cc1c(Br)cccc1C(=O)NCc1cnn(C)c1", "A": 8.315, "B": -2.386}
{"compound": "CC1=C[C@@H](CN2CCC(CO)CC2)[C@H](C(C)C)C[C@H]1Cc1nnc(C)o1", "A": 1.659, "B": -8.314}
{"compound": "CCNC(=O)N1CCC(Nc2nccc(NCC)n2)CC1", "A": 3.181, "B": -8.909}
{"compound": "O=C(CN1CC(n2cccn2)C1)NCCC1=CCCCC1", "A": 4.011, "B": -2.668}
{"compound": "N[C@H]1CC[C@@H](NC(=O)c2ccc3nc(-c4ccc(F)cc4)cn3c2)CC1", "A": 4.863, "B": -1.718}
{"compound": "Cc1ccccc1CS(=O)(=O)NCCCN1CCCC1", "A": 3.116, "B": -3.835}
{"compound": "Cc1ccc2c(c1)CN(C(=O)C1CCCCC1)C(CN(C)C)CO2", "stereo": "stereo not drawn", "A": 5.282, "B": 0.5853}
{"compound": "CCOc1ncccc1NC(=O)N1CCC(n2cncn2)CC1", "A": 4.009, "B": -0.4182}
{"compound": "O=C(COC1CCCC1)N1CCCC1c1noc(C2CC2)n1", "stereo": "stereo not drawn", "A": 1.029, "B": -2.342}
{"compound": "COc1ncc(C(=O)N2CCC(c3nc(C)n4ccsc34)CC2)cn1", "A": 1.687}
{"compound": "CCc1cnc(CN(C)C2CCN(CCc3cccs3)C2)o1", "stereo": "stereo not drawn", "A": -2.801, "B": -0.6823}
{"compound": "Cc1cc2c(=O)n3c(nc2s1)CCN(C(=O)c1sc(C)nc1C)CC3", "A": -0.8443}
{"compound": "O=C(NCC1CCOC1)c1cc(-c2ccc(Cl)cc2)n[nH]1", "stereo": "stereo not drawn", "A": -3.823, "B": 3.366}
{"compound": "Cc1cccc(CN2C[C@@H]3[C@@H](C(=O)NCC(C)C)CCS(=O)(=O)[C@@H]3C2)c1", "A": -1.551, "B": -8.439}
{"compound": "Cc1ccnn1CCC(=O)N1CCCC2(C1)NC(=O)c1ccccc1O2", "stereo": "stereo not drawn", "A": 0.5833, "B": -6.773}
{"compound": "CCOc1cc(C(=O)O)cc(-c2ccccc2)c1OC", "A": 6.429, "B": 0.2244}
{"compound": "O=C1C[C@H]2[C@@H](CCN2C(=O)Cc2cccs2)N1Cc1cccnc1", "A": 1.397, "B": 4.809}
{"compound": "Cc1noc(C)c1CS(=O)(=O)Cc1nc(C2CC2)no1", "A": 3.109, "B": 4.581}
{"compound": "CS(=O)(=O)N1CCOC2(CCN(c3ncccn3)CC2)c2ccccc21", "A": 5.547, "B": -0.4933}
{"compound": "Cc1csc(NC(=O)Cn2nc(C)ccc2=O)n1", "A": 3.686, "B": 3.417}
{"compound": "CC(C)OCCS(=O)(=O)N1CCN(Cc2cccn2C)CC1", "A": 3.775, "B": 3.53}

Once more, the final 2:

- Cc1csc(NC(=O)Cn2nc(C)ccc2=O)n1 | A: 3.686%; B: 3.417%
- CC(C)OCCS(=O)(=O)N1CCN(Cc2cccn2C)CC1 | A: 3.775%; B: 3.53%

Measurements from “University of Dundee, Small-Polar-MMV Screening Library” (2021), ChEMBL document CHEMBL3988442.